Taken from: PubChem BioAssay AID1159578 (Peter MacCallum Cancer Centre, 2015)

Assay: 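siRNA pools altering how lymphatic endothelial cells close a scratch wound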 (primary screen)
Cells: human lymphatic endothelial cells
Reagents: siRNA pool against human genes, 40 nM
Timing: 48 h after transfection
Measurement: 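High-content imaging of dye-stained cells in a scratch assay measures filled wound area and nuclei per well; duplicate means given as ratio to mock and robust z-score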
Scale: migration robust z-score: higher = faster migration into the scratch; migration relative to mock: higher = more scratch area covered than mock; nuclei per well: higher = more cells in the well
Rule for the call: 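Pools averaging fewer than 3300 nuclei are never called; remaining pools count as changed when migration robust z lies outside -2 to 2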
Calls: active = migration changed; inactive = no migration change, or too few cells
Shown is one part, drawn at random, of about 18,000 reagents. About 1,030 of all reagents (5.7%) were called active. 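Inactive calls also include pools with fewer than 3300 nuclei, whose migration was not assessed.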 Raw values vary from plate to plate and are shown uncorrected. Reagent sequences are not shown.

| gene knocked down | PubChem SID | migration robust z-score | migration class with cell-count check | migration relative to mock | nuclei per well, duplicate mean | Call |
| --- | --- | --- | --- | --- | --- | --- |
| HNF1A | SID255352776 | -0.96 | migration z between -2 and 2; enough cells | 0.62 | 5373 | inactive |
| C2 | SID255348605 | -1.98 | migration z between -2 and 2; enough cells | 0.43 | 4182 | inactive |
| PRR3 | SID255360797 | 1.45 | migration z between -2 and 2; enough cells | 1.26 | 5980 | inactive |
| PPP4R2 | SID255363517 | 0.22 | migration z between -2 and 2; enough cells | 0.94 | 7067 | inactive |
| LAMB3 | SID255350721 | -2.96 | migration z below -2; enough cells | 0.24 | 4315 | active |
| PHEX | SID255351551 | 0.78 | migration z between -2 and 2; enough cells | 0.96 | 5816 | inactive |
| GCM1 | SID255353615 | 0.36 | migration z between -2 and 2; enough cells | 0.88 | 3926 | inactive |
| MAP2 | SID255350873 | 0.52 | migration z between -2 and 2; enough cells | 1.02 | 7516 | inactive |
| CPB2 | SID255349058 | -0.21 | migration z between -2 and 2; enough cells | 0.76 | 6244 | inactive |
| CFAP263 | SID255357116 | -0.02 | migration z between -2 and 2; enough cells | 0.88 | 6334 | inactive |
| SUSD6 | SID255354537 | -1.28 | migration z between -2 and 2; enough cells | 0.55 | 5063 | inactive |
| MCOLN2 | SID255364488 | 0.16 | migration z between -2 and 2; enough cells | 0.84 | 5324 | inactive |
| ZNF654 | SID255358562 | 3 | migration z above 2; enough cells | 1.66 | 5545 | active |
| SLC7A9 | SID255355620 | -0.18 | migration z between -2 and 2; enough cells | 0.77 | 5640 | inactive |
| PSG7 | SID255351872 | 1.34 | migration z between -2 and 2; enough cells | 1.23 | 6398 | inactive |
| OR52E6 | SID255365608 | -1.51 | migration z between -2 and 2; enough cells | 0.5 | 5382 | inactive |
| KIN | SID255355893 | -0.94 | migration z between -2 and 2; enough cells | 0.64 | 4506 | inactive |
| CUTA | SID255357803 | 0.46 | migration z between -2 and 2; enough cells | 1.01 | 5402 | inactive |
| VWC2 | SID255365376 | -3.67 | under 3300 nuclei; migration not judged | -0.09 | 3101 | inactive |
| COX14 | SID255361629 | 0.31 | migration z between -2 and 2; enough cells | 0.96 | 6594 | inactive |
| DYNLT4 | SID255365164 | 1.95 | migration z between -2 and 2; enough cells | 1.39 | 7662 | inactive |
| CLEC4D | SID255364982 | -0.38 | migration z between -2 and 2; enough cells | 0.78 | 6158 | inactive |
| LIN28A | SID255360421 | 0.01 | migration z between -2 and 2; enough cells | 0.88 | 6528 | inactive |
| PRICKLE1 | SID255363210 | 0.46 | migration z between -2 and 2; enough cells | 0.9 | 5394 | inactive |
| CARD8 | SID255355857 | -0.78 | migration z between -2 and 2; enough cells | 0.68 | 6174 | inactive |
| DDX54 | SID255360180 | 0.62 | migration z between -2 and 2; enough cells | 0.92 | 5654 | inactive |
| FBXW12 | SID255364833 | -0.93 | migration z between -2 and 2; enough cells | 0.63 | 5724 | inactive |
| ADSS1 | SID255362552 | 1.66 | migration z between -2 and 2; enough cells | 1.12 | 5228 | inactive |
| URB2 | SID255354579 | -0.36 | migration z between -2 and 2; enough cells | 0.74 | 5144 | inactive |
| TMPPE | SID255366086 | 0.13 | migration z between -2 and 2; enough cells | 0.92 | 6222 | inactive |
| MSR1 | SID255351039 | 1.45 | migration z between -2 and 2; enough cells | 1.08 | 6078 | inactive |
| ZSCAN18 | SID255360119 | 0.44 | migration z between -2 and 2; enough cells | 1 | 6344 | inactive |
| FXYD6 | SID255357935 | -1.14 | migration z between -2 and 2; enough cells | 0.58 | 4746 | inactive |
| CD5L | SID255348757 | 0 | migration z between -2 and 2; enough cells | 0.8 | 5514 | inactive |
| KCNJ11 | SID255350615 | -1.43 | migration z between -2 and 2; enough cells | 0.53 | 4900 | inactive |
| DRC5 | SID255364106 | -2.51 | under 3300 nuclei; migration not judged | 0.22 | 2958 | inactive |
| SPARC | SID255352590 | -1.34 | migration z between -2 and 2; enough cells | 0.54 | 3873 | inactive |
| EDNRB | SID255349431 | 1.22 | migration z between -2 and 2; enough cells | 1.04 | 6486 | inactive |
| POM121 | SID255354633 | 0.22 | migration z between -2 and 2; enough cells | 0.94 | 3565 | inactive |
| CRYBG1 | SID255348247 | 0.08 | migration z between -2 and 2; enough cells | 0.9 | 6208 | inactive |
| STON1 | SID255355543 | 0.19 | migration z between -2 and 2; enough cells | 0.94 | 6230 | inactive |
| GFRA1 | SID255349875 | 1.12 | migration z between -2 and 2; enough cells | 1.02 | 5536 | inactive |
| DCPS | SID255357078 | 0.73 | migration z between -2 and 2; enough cells | 0.94 | 5434 | inactive |
| CD1A | SID255348745 | 0.14 | migration z between -2 and 2; enough cells | 0.92 | 6338 | inactive |
| MAPK8IP2 | SID255356314 | 1.26 | migration z between -2 and 2; enough cells | 1.21 | 5832 | inactive |
| HPGD | SID255350299 | -0.86 | migration z between -2 and 2; enough cells | 0.64 | 5223 | inactive |
| SNTB1 | SID255352559 | -0.68 | migration z between -2 and 2; enough cells | 0.7 | 5006 | inactive |
| OR10A4 | SID255364659 | 0.61 | migration z between -2 and 2; enough cells | 1.04 | 6415 | inactive |
| EIF4E2 | SID255354301 | -0.44 | migration z between -2 and 2; enough cells | 0.72 | 4352 | inactive |
| ILK | SID255350489 | -1.15 | migration z between -2 and 2; enough cells | 0.58 | 5476 | inactive |
| ILK | SID255358669 | 1.06 | migration z between -2 and 2; enough cells | 1.01 | 6518 | inactive |
| KCNA6 | SID255350590 | 0.2 | migration z between -2 and 2; enough cells | 0.84 | 5060 | inactive |
| DNER | SID255362031 | -1.08 | migration z between -2 and 2; enough cells | 0.6 | 5622 | inactive |
| SMOC1 | SID255359823 | 0.66 | migration z between -2 and 2; enough cells | 1.06 | 5820 | inactive |
| PCM1 | SID255351445 | 1.48 | migration z between -2 and 2; enough cells | 1.09 | 6008 | inactive |
| SMCO3 | SID255365891 | -1.15 | migration z between -2 and 2; enough cells | 0.58 | 5799 | inactive |
| MYO3B | SID255363103 | -1.69 | migration z between -2 and 2; enough cells | 0.48 | 4836 | inactive |
